Publication PMC5122980
These are yes or no findings as the source states them, for the method shown. Binding seen in cells or lysates may run through a third protein. Some binding calls cover weakened binding; strength is not graded here.

Amino acid sequences for entries named in this document (tags omitted). A change or cut given only in a name is not applied to a line headed by its entry.
UniProt P05627: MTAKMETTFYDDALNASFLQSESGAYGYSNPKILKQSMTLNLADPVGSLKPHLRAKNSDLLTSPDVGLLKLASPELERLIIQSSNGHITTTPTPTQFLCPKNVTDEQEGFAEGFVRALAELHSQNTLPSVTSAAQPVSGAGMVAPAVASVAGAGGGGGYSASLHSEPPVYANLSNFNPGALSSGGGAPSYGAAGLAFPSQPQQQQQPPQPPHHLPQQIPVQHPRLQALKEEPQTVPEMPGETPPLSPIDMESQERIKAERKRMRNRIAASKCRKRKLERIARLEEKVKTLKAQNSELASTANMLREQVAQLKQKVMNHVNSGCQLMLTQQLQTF
UniProt P11688: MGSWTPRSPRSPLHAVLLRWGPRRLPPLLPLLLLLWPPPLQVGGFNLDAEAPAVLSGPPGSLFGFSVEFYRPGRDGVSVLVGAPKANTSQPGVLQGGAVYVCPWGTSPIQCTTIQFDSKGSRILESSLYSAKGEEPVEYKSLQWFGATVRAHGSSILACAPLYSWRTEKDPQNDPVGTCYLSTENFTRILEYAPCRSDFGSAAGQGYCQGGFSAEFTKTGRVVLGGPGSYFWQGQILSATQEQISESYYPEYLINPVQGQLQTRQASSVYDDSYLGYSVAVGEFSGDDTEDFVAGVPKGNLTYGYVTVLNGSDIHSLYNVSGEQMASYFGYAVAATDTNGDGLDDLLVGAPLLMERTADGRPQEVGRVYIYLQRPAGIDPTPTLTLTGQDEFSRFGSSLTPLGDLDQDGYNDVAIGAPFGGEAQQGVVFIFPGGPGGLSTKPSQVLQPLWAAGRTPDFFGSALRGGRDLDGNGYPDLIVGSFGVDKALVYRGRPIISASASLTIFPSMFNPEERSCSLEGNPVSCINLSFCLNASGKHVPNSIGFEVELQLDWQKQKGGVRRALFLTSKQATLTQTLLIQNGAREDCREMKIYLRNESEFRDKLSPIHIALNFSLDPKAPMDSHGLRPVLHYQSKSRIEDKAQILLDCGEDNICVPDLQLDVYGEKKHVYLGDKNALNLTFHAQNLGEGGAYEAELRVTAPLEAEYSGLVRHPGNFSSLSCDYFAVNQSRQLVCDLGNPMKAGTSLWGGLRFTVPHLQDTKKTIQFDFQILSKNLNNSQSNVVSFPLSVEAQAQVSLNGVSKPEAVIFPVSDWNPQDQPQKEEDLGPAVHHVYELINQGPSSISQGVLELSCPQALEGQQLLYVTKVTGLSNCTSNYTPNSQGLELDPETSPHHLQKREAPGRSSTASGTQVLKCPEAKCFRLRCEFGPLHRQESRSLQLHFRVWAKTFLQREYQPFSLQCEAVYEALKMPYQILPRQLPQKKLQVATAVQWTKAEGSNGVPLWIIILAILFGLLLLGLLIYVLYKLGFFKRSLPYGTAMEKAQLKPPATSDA
UniProt P01101: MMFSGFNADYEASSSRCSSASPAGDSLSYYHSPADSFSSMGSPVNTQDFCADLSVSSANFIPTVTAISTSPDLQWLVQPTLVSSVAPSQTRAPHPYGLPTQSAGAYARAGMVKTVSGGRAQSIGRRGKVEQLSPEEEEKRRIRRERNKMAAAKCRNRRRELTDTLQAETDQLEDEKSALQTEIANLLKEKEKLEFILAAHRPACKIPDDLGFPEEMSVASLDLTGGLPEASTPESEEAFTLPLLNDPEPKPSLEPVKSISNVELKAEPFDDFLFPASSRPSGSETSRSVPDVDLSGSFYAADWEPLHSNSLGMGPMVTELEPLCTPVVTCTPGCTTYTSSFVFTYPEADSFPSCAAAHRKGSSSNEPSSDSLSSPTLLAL
UniProt P09055: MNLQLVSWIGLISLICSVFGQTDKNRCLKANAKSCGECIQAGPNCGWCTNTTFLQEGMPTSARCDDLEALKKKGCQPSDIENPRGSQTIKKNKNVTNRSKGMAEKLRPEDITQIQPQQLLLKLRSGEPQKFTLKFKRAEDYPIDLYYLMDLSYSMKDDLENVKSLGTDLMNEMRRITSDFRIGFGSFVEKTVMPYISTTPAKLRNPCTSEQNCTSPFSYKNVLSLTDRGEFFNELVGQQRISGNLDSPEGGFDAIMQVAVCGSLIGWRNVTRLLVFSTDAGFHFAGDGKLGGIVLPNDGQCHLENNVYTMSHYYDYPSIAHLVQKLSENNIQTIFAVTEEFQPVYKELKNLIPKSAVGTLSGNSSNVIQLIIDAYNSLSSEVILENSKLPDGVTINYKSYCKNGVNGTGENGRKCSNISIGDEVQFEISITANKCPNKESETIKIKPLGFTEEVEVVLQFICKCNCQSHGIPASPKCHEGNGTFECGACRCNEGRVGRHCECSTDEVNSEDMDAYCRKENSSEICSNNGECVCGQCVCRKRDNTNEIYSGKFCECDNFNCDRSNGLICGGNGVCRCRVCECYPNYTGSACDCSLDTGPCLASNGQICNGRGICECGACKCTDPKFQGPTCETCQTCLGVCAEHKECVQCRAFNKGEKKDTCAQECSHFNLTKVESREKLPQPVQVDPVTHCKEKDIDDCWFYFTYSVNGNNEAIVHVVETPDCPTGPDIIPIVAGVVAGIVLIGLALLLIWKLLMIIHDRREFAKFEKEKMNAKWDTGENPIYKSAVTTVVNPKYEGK

Legend:
[1] = biological target: T1, Flag-Jun-α5 cyto (mouse) (UniProt P05627+P11688); assay: pull-down; mixture of E. coli lysate supernatants of Flag-Jun-α5 and Myc-Fos-β1 incubated with ANTI-FLAG M2 Affinity Gel 2 h at 4 °C, washed three times with TBS; cytotails revealed by anti-Flag and anti-Myc blots
[2] = biological target: Flag-Fos-β1 cyto (mouse) (UniProt P01101+P09055); assay: pull-down; recombinant Flag-tagged integrin cytotails (alone or Jun-Fos dimerized) held on ANTI-FLAG M2 Affinity Gel, washed with TBS; 1 mg mouse fibroblast lysate (50 mM Tris-HCl pH 7.5, 150 mM NaCl, 1% Triton X-100) added for 2 h at 4 °C; western blot; only the target purified
[3] = biological target: T1, Flag-Jun-α5 cyto (mouse); assay: as above

binding [1]	binding [2]	binding [3]	Molecule
binds			Myc-Fos-β1 (from UniProt P01101 161-200; P09055 752-798) (domain or fragment)
	binds	no binding	kindlin-2 (protein, UniProt Q8CIB5 1-680) MALDGIRMPDGCYADGTWELSVHVTDLNRDVTLRVTGEVHIGGVMLKLVEKLDVKKDWSDHALWWEKKRTWLLKTHWTLDKCGIQADAKLQFTPQHKLLRLQLPNMKYVKVKVNFSDRVFKAVSDICKTFNIRHPEELSLLKKPRDPTKKKKKKLDDQSEDEALELEGPLIMPGSGSIYSSPGLYSKTMTPTYDAHDGSPLSPTSAWFGDSALSEGNPGILAVSQPVTSPEILAKMFKPQALLDKAKTNQGWLDSSRSLMEQDVKENEALLLRFKYYSFFDLNPKYDAIRINQLYEQAKWALLLEEIECTEEEMMMFAALQYHINKLSIMTSENHLNNSDKEVDEVDAALSDLEITLEGGKTSTILGDITSIPELADYIKVFKPKKLTLKGYKQYWCTFKDTSISCYKSREESSGTPAHQLNLRGCEVTPDVNISGQKFNIKLLIPVAEGMNEIWLRCDNEKQYAHWMAACRLASKGKTMADSSYNLEVQNILSFLKMQHLNPDPQLIPDQITTDVNPECLVSPRYLKKYKSKQITARILEAHQNVAQMSLIEAKMRFIQAWQSLPEFGITHFIARFQGGKREELIGIAYNRLIRMDASTGDAIKTWRFSNMKQWNVNWEIKMVTVEFADEVRLSFICTEVDCKVVHEFIGGYIFLSTRAKDQNESLDEEMFYKLTSGWV
